Results are given in words; binding and its absence hold for the method and conditions named. In cells and extracts the contact can be indirect. A yes stands for co-enrichment or nearness to the bait. Other partners may have been found. Blank lines part the entries; values can stand above or below the binder they belong to.
Target: APEX2-WDR47 (mouse) (UniProt Q8CGF6)
Assay: proximity labelling; APEX2-WDR47 expressed in mEPCs by adenovirus; 500 uM biotin-phenol at 37 C for 30 min, 1 mM H2O2 for 1 min; lysis in RIPA buffer, biotinylated proteins on streptavidin-conjugated agarose beads, shotgun mass spectrometry; cutoff >= twofold peptide ratio against the mock-treated control

The chains behind the UniProt entries cited, without tags or fusion partners.
UniProt Q8CGF6: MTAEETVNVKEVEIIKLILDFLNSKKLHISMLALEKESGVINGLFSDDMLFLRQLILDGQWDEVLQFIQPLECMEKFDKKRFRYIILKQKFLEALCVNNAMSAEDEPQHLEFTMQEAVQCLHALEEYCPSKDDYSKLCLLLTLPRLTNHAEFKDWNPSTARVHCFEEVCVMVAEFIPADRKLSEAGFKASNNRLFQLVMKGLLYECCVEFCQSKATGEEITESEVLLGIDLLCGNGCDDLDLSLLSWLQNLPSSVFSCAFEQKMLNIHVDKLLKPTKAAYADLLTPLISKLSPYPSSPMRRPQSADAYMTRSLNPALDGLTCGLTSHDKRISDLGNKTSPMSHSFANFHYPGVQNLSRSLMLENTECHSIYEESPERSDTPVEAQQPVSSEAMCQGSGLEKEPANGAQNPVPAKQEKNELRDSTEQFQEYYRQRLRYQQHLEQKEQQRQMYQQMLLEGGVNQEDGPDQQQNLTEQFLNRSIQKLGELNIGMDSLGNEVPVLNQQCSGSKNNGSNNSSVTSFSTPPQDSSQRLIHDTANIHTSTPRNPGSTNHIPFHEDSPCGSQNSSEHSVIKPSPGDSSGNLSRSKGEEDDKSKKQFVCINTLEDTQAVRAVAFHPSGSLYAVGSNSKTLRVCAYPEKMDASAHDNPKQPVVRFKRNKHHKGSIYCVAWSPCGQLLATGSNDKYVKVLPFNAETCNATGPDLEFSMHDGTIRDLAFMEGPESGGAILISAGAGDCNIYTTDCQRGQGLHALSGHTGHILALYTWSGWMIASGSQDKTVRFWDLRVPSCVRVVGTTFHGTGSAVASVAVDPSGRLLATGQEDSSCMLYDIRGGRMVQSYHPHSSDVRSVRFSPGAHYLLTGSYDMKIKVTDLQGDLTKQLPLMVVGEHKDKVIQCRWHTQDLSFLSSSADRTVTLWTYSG

binding: binds
B1: LRRC71 (protein, UniProt Q9D3W5 1-558)
chain: MSSEPSTTGTSPRTPRPGAQKSSGAVTKKGDRAAKDKTASTLPPVGEDEPKNPEEYQCTGVLETDFAELCTRSGYVDFPKVVTRPRVQQSSVPSASTSEKPVLDDQRPSASCSQSSLESKYVFFRPTIQVELEQEDSKAVKEIYIRGWKVEDRILGIFSKCLPSLSQLQAINLWKVGLTDKTLTTFIALLPLCSSTLRKVSLEGNPIPEQSFSKLMGLDSTIVHLSLRNNNINDHGAQLLGQALSTLQNSNRTLVSLNLAFNHIGDVGAGYIADGLRLNRSLLWLSLAHNHIQDKGALKLAEVLRPFELTHREVVERRRLLLVKGTQERSRSPSSSRYGDSKAEREKSQTLGISNVTLVDKQEKMQSLKAPKTISKKKEKTGEVVKKEEKLGSGQSPTQGTPKKEDAAKAGKGKVTIPEQKMSKGKATKMGAKEKRSILLESEQLVVEATEMVNPLLEPVEHRDGKVFLPGNKVLLHLNLLRNQITEVGLEGFLTAVQYQVQVSKPKTSPKAPLGLLWLSLAKNCFDPQCPTHVMIQELMLPRDPVKAKAREEEAAAT

binding: binds
B2: SPAG6 (protein, UniProt Q9JLI7 1-507)
chain: MSQRQVLQVFEQYQKARTQFVQMVAELATRPQNIETLQNAGVMSLLRPLLLDVVPTIQQTAALALGRLANYNDDLAEAVVKGDILPQLVYSLAEQNRFYKKAAAFVLRAVGKHSPQLAQAIVDCGALDTLVICLEDFDPGVKEAAAWALGYIARHNTELSQAVVDAGAIPLLVLCIQEPEIALKRIAASALSDISKHSPELAQTVVDAGAIAHLAQMILNPDAKLKRQVLSALSQIAKHSVDLAEMVVEAEIFPVVLTCLKDKDEYVKKNACTLIREIAKHTPELSQLIVNAGGVAAVIDCIGSCKGNIRLPGIMMLGYVAAHSENLAMAVIISKGVPQLSICLSEEPEDHIKAAAAWALGQLGRHTPEHARAVAVTNTLPVLLSLYMSPESSEDLQLKSKKAIKNILQKCTYLPALEPFLYDAPPNILKHVVGQFSKVLPHDSKARRLFVTSGGLKKVQEIKAEPGSLLQEYINSINNCYPEEIVRYYSPGYSDTLLQRVDSYQPL

binding: binds
B3: CCDC13 (protein, UniProt D3YV10 1-709)
chain: MAADESSADTLRLQFKAMQELQHRRLQKQMEKKREKELSCQSKADNQEGFMVIPDGLSLLDTEEQNLKNIFEKRVLEDEIQHLRSELRETVDENGRLYKLLKERDFEIKHLKKKIEEDRFAFTGASGMAGDLVATKIVELSKKNRGLMAESESAKVRIKQLTNRIQELEHQLQMASAKPPSKGATDAGAKPLKTQTGDRALLETPEVKALQDRLAATNLKMSDLRNQIQSAKQELRVAQKVLANEVGEDVNIQQLLASPGTWRGRAQQILVLQSRVRDLEKQLGQRQNKPAGSSSSEVPLSSDSRKMTAQEKNLLRIRSLERDKQESWEKLASERDTLQTELEELRKKFEGMRSRNKVLSSEVKTLRSQMTTLVEKGRHDDELIDALMDQLKQLQDILSSLSVQEESRRTSQQHLDQKVNSEAQRSSSLVAQLRAMVADREAKVRQLELEIGQLSVQYLHGKGGGEGASPADARFPEDQTPITNSPASAGDHVGRLGSSRSVTSLGHTLVESALTRPSLPSPHGTSPRFSDSPEQKGWQAQAAEMKALWQAAEVERDRLNEFVTVLQKRVEESSSKLLEAERRLQEERQRAVLLEQHLEKMRLEPSRASVSQKTKNKPGPPAANTKPNSAGSAKKDSSSTQLCDMPMESQIQELNARLAIQMEENGILRDALGSALRGKEEDFRMYHQTLGQVKGVFLQALRQQKANKQ

binding: binds
B4: C2ORF81 (protein, UniProt Q9DAQ4-1 1-598)
chain: MSHEGSRQARDRGVTRSKAEKARPPTQPVPQVDIVPGRLNEAEWIAFMSLEEGEDVVGDILADLMTRVMECAFKVYLTQQCVPFTISQAREAMLQITEWRFLARDEGESAVAEDPTWGEDEEPLACTTDSWAQGSVPVLHTPAPVCVEEQFHNEEPGNPDQFLLGSSWDKESQKPTQPSEPSAEPKVTPRPTATLEAFEEAEPGDALEVPHGQEGSHMLAVPSKESLRSTAEGERVYSPQSSLKQPQVVRLQASEKESSFGSHLSLEDLYLCMPQPDAAGDRLSLQSKGQLHSSPIGSESHLGALTPAEPSAFQEPEVLGERPKHKTTTLRMDSSRLPRHWVRPVAEVLIPDLEVHPLEIYRGRPRRSQAGTATSACESQALSSRAPSKPHVSSPRFPLQRCATFRALGPDPSLNLAQTSPSFGSNVPFLSPGFRFLPRNPIPPDVASTPTPKLWPLAKWPSGWEREAEQLGELWAGRTRVPPQGQEPVEVTPLEEDSGWPLAAPQVLEATSQVLWKPMVISETMKLVPGVSMWNRGTQELLNPAVIRKEAEEGTPQAPEQQPIQTGVSKPQVIMKQIRNETPKAWLLPTKPVPHSGS

binding: binds
B5: NPHP4 (protein, UniProt P59240 1-1425)
chain: MGDWHRAFTQNTLVPPHPQRARQLGKESTAFQCILKWLDGPLIKQGILDMLSELECHLRVTLFDVTYKHFFGRTWKTTVKPTNQPSKQPPRITFNEPLYFHTTLSHPSIVAVVEVVTEGRKRDGTLQLLSCGFGILRIFGNKPESPTSAAQDKRLRLYHGTPRALLHPLLQDPIEQNKFMRLMENCSLQYTLKPHPPLEPAFHLLPENLLVSGFQQIPGLLPPHGDTGDALRKPRFQKPTTWHLDDLFFTLYPSLEKFEEELVQLLISDREGVGLLDSGTLEVLERRLHVCVHNGLGFVQRPQVVVLVPEMDVALTRSASFSRKISASSKNSSGNQALVLRSHLRLPEMVSHPAFAIVFQLEYVFNSPSGADGGASSPTSISSVACMHMVRWAVWNPDLEVGPGKVTLPLQGGVQQNPSRCLVYKVPSASMSSEEVKQVESGTIQFQFSLSSDGPTEHANGPRVGRRSSRKMPASPSGTPAPAARDLAATQDSPVGPGLSLSQLTASPLSPALQSSSKPPLQPPDSSQSPEGPQLQAESVLESRVSHLEADLSQPASLQGTPAVEHLQELPFTPLHAPIVVGAQTRSSRSQLSRAAMVLLQSSGFPEILDASQQPVEAVNPIDPVRFNPQKEESDCLRGNEIVLQFLAFSRAAQDCPGTPWPQTVYFTFQFYRFPPETTPRLQLVKLDGTGKSGSGSLSHILVPINKDGSFDAGSPGLQLRYMVDPGFLKPGEQRWFAHYLAAQTLQVDVWDGDSLLLIGSAGVQMKHLLRQGRPAVQVSHELEVVATEYEQEMMAVSGDVAGFGSVKPIGVHTVVKGRLHLTLANVGHACEPRARGSNLLPPSRSRVISNDGASFFSGGSLLIPGGPKRKRVVQAQRLADVDSELAAMLLTHTRAGQGPQAAGQEADAVHKRKLERMRLVRLQEAGGDSDSRRISLLAQHSVRAQHSRDLQVIDAYRERTKAESIAGVLSQAITTHHTLYATLGTAEFFEFALKNPHNTQHTVAIEIDSPELSIILDSQEWRYFKEATGLHTPLEEDMFHLRGSLAPQLYLRPRETAHIPLKFQSFSVGPLAPTQAPAEVITEKDAESGPLWKCSAMPTKHAKVLFRVETGQLIAVLCLTVEPQPHVVDQVFRFYHPELTFLKKAIRLPPWHTLPGAPVGMPGEDPPVHVRCSDPNVICEAQNVGPGEPRDVFLKVASGPSPEIKDFFVVIYADRWLAVPVQTWQVCLHSLQRVDVSCVAGQLTRLSLVLRGTQTVRKVRAFTSHPQELKTDPAGVFVLPPHGVQDLHVGVRPRRAGSRFVHLNLVDIDYHQLVASWLVCLSCRQPLISKAFEITMAAGDEKGTNKRITYTNPYPSRRTYRLHSDRPELLRFKEDSFQVAGGETYTIGLRFLPSGSAGQEEILIYINDHEDKNEETFCVKVLYQ

binding: binds
B6: TXIP1 (protein, UniProt Q99P25 1-704)
chain: MANLQERKSFSKPRISIQASGGTPEAKGIEKRKLSQKRRTLPLQLSLGGHLSPWPTYTSGQTVLHNRKPCSDDSRNRANSCQQQSMSISKPKYLEQLENYLRKELLLLDLSTDSAQELRLQPYREIFEFFIEDFKTYKPLLSSIKNAYEVMLAHQKERIRSLEPLKAKIVTMNEDCSERVLAMRAEERYEISVLKKEKMNLLKLIDKKNEEKISLQSEVAKLRRSLAEEYLRYLTERDARKILIGDLNELRYQQEDMSLAQTPGVWGEDPVKLTLALKMTRQDLTRTQMELNTMKANSGDVVPRRDLEMQEKTNMELQEQLESLKADYEEVQKEHELLLQLHMSTLKERDQFYNELQEIQRTSTPRPDWTKCESIIAGGPERWLVLAEGKNSDQLVDVLLEEIGMGLLREKDFFPGLGFGDAIPPFLRFDGPVKNKKPSKKEVVNLLKDAWKERIAEEQKEPFPDFFFNFLERRFGVNDAMAWAYTIFENIKLFRSSEIMNQFYAVLMGKNLESVYINQKKTLSHLLKELLSVDTQNEGSITMEQFSTILKTTFPLKKEEQIQELMEAVGWGPDSSNTDMLNYRSLFNEDEEGQSEPFVQRLWEQYESDKEAYLEELKQELDLDPLEDVTLLKMRGTLMNIDPTMDKQTLSAYLSQAYQIPAIDVPLEDEEKQGIISIKVETALDRLRMADTKRVGPREPDPAS

binding: binds
B7: ARMC3 (protein, UniProt A2AU72 1-881)
chain: MGKKIKKEVEPPPKDVFDPITIESKKAATVVLMLKSPEEDILAKACEAIYKFALKGEENKATLLELGAVEPLTKLLTHEDKTVRRNAMMIFGILASNSDVKKLLRELEVMNSVIAQLSPEEEVVIHEFASLCLANMSVEYTGKVQIFEHGGLEPLIRLLSSSDPDVKKNSIECIYNLVQDFQCRTTLQELNAIPPILELLRSEYPIIQLLALKTLGVITCDKEARTMLKENQGLDHLTKILETKELNDLHVEALSVIANCLEDMDTMVLMQQTGSLKKVLSFAESSTIPDIQKNAAKAIAKAAYDPENRKVFHEQEVEKCLVTLLGSDSDGTKIAASQAISALCENLSCKEFFNTQGIPQIVQLLRSDNEEVREAAALALANLTTSSPANANAAAEADAIDPLINILSSKRDGAIANAATVLTNMATQEPLRAIIQNHEIMHALLGPLHSTNTLVQSTAALTVAATACDVEARTQLRNCGGLVPLVGLLHSKNDEVRRHASWAVMVCAGDEPMAVELCRLGALNILEEINRSLSRKNKFSEAAYNKLLNNNLSLKYSQTGYLSSSNIISDGFYDYGRINPGTKLLSLKELCLQELNDQRAILLVNNKSDTSPPPSMEDKSSDVGYGRSISSSSSLRRGSKEKANAIFGSPTEEKSEPASVRNTILSRAFTKEKGVSKKKSRLQLICSSYLLWKGKGKKEEEKVKEEEEILALPKFTEGSPEKEWNPPPDPEFCVYVLEVTKSILPIVNLKEQIEVLAKYVADKMGGKIPKEKLADFSWELHISELKFQLKSNVVPIGYIKKGIFYHRALLFKALADKIGVGCSLVRGEYSRGWNEVKLVNEARKGMIGNLPPPEEYIVDLMFHPGNLLKLRSKEADLYRFL

binding: binds
B8: SPEF1 (endogenous) (protein, UniProt Q99JL1 1-234)
chain: MESSVDEEALHQLYLWVDNIPLSRPKRNLSRDFSDGVLVAELIKFYFPKMVEMHNYVPANSLQQKLSNWGHLNRKVLNKLNFSVPDDVMRKIAQCSPGVVELVLIPLRQRLEERQRRQKLGVGSLQELAPQDSSGYMDMGLPQKVRGEGAPALGEQLREGRPLASRPPGYNQALQGDPSFVLQIAEKEQELLASQETVQVLQMKVKRLEHLLQLKNVRIDDLSRRLQQAERKQR
